The text below walks through data of the supplement of paper PMC12578635.

± gives the standard deviation of the averaged measurements. Some of the results follow. Most values come without repeats; read them as rough.

The test deals with RAW 264.7 macrophages infected with S. aureus JE2-lux. Briefly: host macrophage viability (CellTiter-Fluor) relative to DMSO vehicle; higher = more viable host cells. The following applies: 10 µM; treatment time 4 h; gentamicin 50 µg/ml.
On to `CS(=O)(=O)c1ccc(Sc2nc3ccccc3s2)c([N+](=O)[O-])c1`, for which the host macrophage viability worked out at 102%.

As for `CSc1nc2ccc(NC(=O)Nc3cccc(Cl)c3)cc2s1`, the host macrophage viability was determined as 118%.

`COc1cc(OC)c(NC(=O)c2sc3nc(C)nc(N4CCCC4)c3c2C)cc1Cl`: the host macrophage viability turned out to be 112%.

For the compound `CN(C1CCCCC1)S(=O)(=O)c1ccc(C(=O)Nc2sccc2C(N)=O)cc1`, the host macrophage viability amounted to 119%.

As for `O=C(NC1(CN2CCCC2)CCCCC1)C1OCOc2ccccc21` (configuration not stated), the host macrophage viability is 114%.

On to `CCC(C)NC(=O)c1ccc2c(=O)n(C)c3n[nH]c(=S)n3c2c1` (configuration not stated), for which the host macrophage viability was 95.2%.

In the case of `COc1ccc2cc(CCNC(=O)Cc3cccc4ccccc34)c(=O)[nH]c2c1`, the host macrophage viability was determined as 124%.

As for `O=C(O)c1cc(-c2ccc(F)cc2)nc2ccccc12`, the host macrophage viability worked out at 111%.

For `COc1ccc(N2C(=O)NC3CC2(C)Oc2ccc([N+](=O)[O-])cc23)c(OC)c1` (configuration not stated), the host macrophage viability is 109%.

For `CCc1ccc(NC(=O)Nc2ccccc2OCc2cc(=O)n3ccc(C)cc3n2)cc1`, the host macrophage viability was determined as 136%.

Take `COc1ccc2[nH]c3nc(SCc4nc5ccccc5[nH]4)nnc3c2c1`: the host macrophage viability is 114%.

For the compound `Cc1ccc(C)c(N2CCN(S(=O)(=O)c3c(C)sc(C)c3-c3cc(C(F)(F)F)on3)CC2)c1`, the host macrophage viability turned out to be 136%.

In the case of `COc1ccc(C(=O)Nc2cccc(-c3ccc4nncn4n3)c2)c(OC)c1`, the host macrophage viability turned out to be 116%.

As to `CN(c1cncc(C(=O)NCc2cccnc2)c1)S(=O)(=O)c1ccccc1`, the host macrophage viability came to 111%.

Turning to `O=C(CSc1nc2c(c(=O)[nH]1)CN(Cc1ccc(F)cc1)CC2)Nc1ccc(Cl)cc1`, the host macrophage viability is 109%.

For `COC(=O)CCSc1ncnc2scc(-c3ccc(Cl)cc3)c12`, the host macrophage viability was determined as 117%.

As to `NC(=O)C1Cc2ccccc2N1C(=O)CC(c1ccccc1)c1ccccc1` (configuration not stated), the host macrophage viability was 105%.

As for `CCOc1ccc(NCc2ccc(O)c3ncccc23)cc1`, the host macrophage viability is 122%.

`CCCCCNC(=O)c1cc(-c2ccc(Cl)cc2)nc2[nH]nc(-c3ccc(OC)cc3)c12`: the host macrophage viability is 147%.

For the compound `Cc1nc2c(C)cccc2cc1C(=O)NCCS(=O)(=O)NC1CCCCC1`, the host macrophage viability was 133%.

With `O=c1/c(=C/c2ccc(Br)cc2)sc2nc(-c3ccncc3)nn12`, the host macrophage viability was found to be 108%.

For `CCc1nnsc1C(=O)Nc1ccc(S(=O)(=O)N2CCOCC2)cc1`, the host macrophage viability is 99.9%.

As for `O=C1NC(=O)c2cc(NC(=O)c3cc(Cl)sc3Cl)ccc21`, the host macrophage viability is 105%.

Take `NC(=O)c1c(Nc2nc3ccc(F)cc3s2)sc2c1CCCC2`: the host macrophage viability was 146 ± 11%.

Take `O=C(CC1SC(=O)N(c2ccccc2)C1=O)Nc1ccccc1` (configuration not stated): the host macrophage viability is 110%.

`CCCN1C(=O)C(C)(C)COc2ccc(NS(=O)(=O)c3ccc4c(c3)CCCC4)cc21`: the host macrophage viability was found to be 119%.

With `COc1cccc(/C=N/c2cccc3c(=O)[nH][nH]c(=O)c23)c1O`, the host macrophage viability worked out at 129%.

As to `Cn1c(SCC(=O)N2CCCC2)nc2c(-c3ccccc3)csc2c1=O`, the host macrophage viability was 112%.

In the case of `O=C(CN(Cc1ccc(Cl)cc1)C(=O)c1cccnc1)N1CCNCC1`, the host macrophage viability was found to be 124%.

As for `COCCN(Cc1cc2cc3c(cc2nc1Cl)OCO3)C(=O)NCc1ccccc1`, the host macrophage viability worked out at 105%.

In the case of `N#C/C(C(=O)NCc1ccco1)=C1/SC=C(c2ccccc2)N1c1ccccc1`, the host macrophage viability was 106%.

For `O=C(NC(c1ccccc1)c1ccccc1)c1cnc2n(c1=O)CCS2`, the host macrophage viability was 120%.

For the compound `Cc1c(Cl)ccc2sc(N(Cc3ccccn3)C(=O)c3ccc(S(C)(=O)=O)cc3)nc12`, the host macrophage viability stood at 120%.

With `Cc1ccnc(N2CCC(C(=O)NC3CCCCCC3)CC2)n1`, the host macrophage viability was 130%.

In the case of `O=C(COc1ccc(Cl)cc1)N1CCN=C1SCc1ccccc1F`, the host macrophage viability was 109 ± 6.3%.

In the case of `O=C1CN(C(=O)c2ccccc2Br)C(c2ccccc2)c2cc(F)ccc2N1` (configuration not stated), the host macrophage viability stood at 105%.

Regarding `CC1=C(C(=O)Nc2ccc(C)cc2)C(c2ccc(N(C)C)cc2)NC(=O)N1` (configuration not stated), the host macrophage viability turned out to be 96.9%.

In the case of `Cc1cc(NC(=O)CSc2nc(=O)n(CCO)c3c2CCCC3)no1`, the host macrophage viability is 107%.

As to `O=C(Nc1cccc2ccccc12)c1cnc2sccn2c1=O`, the host macrophage viability turned out to be 122 ± 5.4%.

For `CC(C)COc1ccc(S(=O)(=O)Nc2ccc3c(c2)C(=O)Nc2ccccc2O3)cc1`, the host macrophage viability is 105%.

As to `Cc1ccn2c(=O)nc(SCC(=O)N3CCC(C)CC3)nc2c1`, the host macrophage viability is 120%.

For `Cc1ccc(CNc2nccn(-c3ccc(C)cc3C)c2=O)cc1`, the host macrophage viability came out at 122%.

For `CC1(C)c2sc(=O)[nH]c2SC2C(=O)N(CC(=O)O)C(=O)C21` (configuration not stated), the host macrophage viability turned out to be 122%.

For `Cc1ccnc(NC(=O)Nc2c[nH]c3ccccc23)c1`, the host macrophage viability worked out at 116%.

As for `COCCOC(=O)c1c(C)oc2ccc(OCC(=O)c3ccc(OC)cc3)cc12`, the host macrophage viability stood at 118%.

Regarding `Cc1c(Cl)cccc1NC(=O)Cn1c(=O)n(Cc2ccccc2)c(=O)c2sc3ccccc3c21`, the host macrophage viability is 116%.

For `O=c1oc2ccccc2n1CCCOc1ccccc1`, the host macrophage viability was 106%.

As for `Cc1cc2cc(C#N)c(SCC(=O)N3CCc4ccccc43)nc2cc1C`, the host macrophage viability is 117%.

In the case of `CC12CC(NC(=O)N1c1ccc3c(c1)OCCO3)c1ccccc1O2` (configuration not stated), the host macrophage viability is 134%.

Regarding `COc1ccc(Cl)cc1NC(=O)CSc1ccc2nnc(-c3ccncc3)n2n1`, the host macrophage viability came out at 122%.

For the compound `O=C1/C(=C/c2nc3ccccc3[nH]2)SC(=S)N1Nc1ccccc1`, the host macrophage viability came out at 105%.

For the compound `Cc1nnc(SCC(=O)NCc2ccccc2Cl)[nH]c1=O`, the host macrophage viability worked out at 113%.

For `Cc1ccc(-c2csc(NC(=O)c3ccc(N4C(=O)CCC4=O)cc3)n2)o1`, the host macrophage viability stood at 111 ± 4.8%.

As to `CC(=O)Nc1ccc(NC(=O)CSc2ccc(-c3ccc(Cl)cc3)nn2)cc1`, the host macrophage viability turned out to be 110%.

As to `CC1(C)Cc2nc3sc4c(=O)n(CC(=O)NCC5CCCO5)cnc4c3cc2CO1` (configuration not stated), the host macrophage viability turned out to be 120%.

`CCCn1nc(C)cc1NC(=O)c1ncoc1-c1ccc(F)cc1`: the host macrophage viability turned out to be 128%.

For `N#Cc1cc2cc3c(cc2nc1SCC(=O)N1CCCc2ccccc21)OCO3`, the host macrophage viability was found to be 131%.

Take `Cc1ccc(-c2csc(-c3cccn3CC(=O)NC3CCCCCCC3)n2)cc1`: the host macrophage viability is 92%.

In the case of `O=C(O)c1ccc(Oc2nccnc2N2CCCCC2)cc1`, the host macrophage viability stood at 121%.

As for `CCC(=O)NNc1nc2c(Cl)cccc2s1`, the host macrophage viability is 126 ± 14%.

For the compound `CSc1cccc2sc(NCc3ccccc3)nc12`, the host macrophage viability came out at 115%.

As to `CCS(=O)(=O)c1ccccc1C(=O)/N=c1/sc2cc([N+](=O)[O-])ccc2n1C`, the host macrophage viability stood at 124%.

Regarding `CCOC(=O)C1=C(C)NC(O)=NC1c1ccc([N+](=O)[O-])cc1` (configuration not stated), the host macrophage viability came to 125%.

`O=C(O)CC1S/C(=N\N=C/c2ccccc2)N(c2ccc(O)cc2)C1=O` (configuration not stated): the host macrophage viability amounted to 107%.

Consider `CC(C)Cn1c(N2CCCC2)nc2c1c(=O)[nH]c(=O)n2C`, for which the host macrophage viability amounted to 106 ± 1.4%.

In the case of `CCc1cc(Sc2ccc(N)cc2)n2ncnc2n1`, the host macrophage viability was determined as 117%.

`COc1ccc(C(=O)NCc2cccnc2)cc1S(=O)(=O)N1CCOCC1`: the host macrophage viability was 114%.

With `c1csc(CSc2nnc3sc4ccccc4n23)c1`, the host macrophage viability stood at 107%.

Consider `O=C(CCN1C(=O)c2ccccc2S1(=O)=O)Nc1ncc([N+](=O)[O-])s1`, for which the host macrophage viability is 88.6%.

For the compound `CCOC(=O)c1sc(-c2ccccc2)cc1NC(=O)CCS(=O)(=O)c1ccccc1`, the host macrophage viability is 114%.

As to `O=C(Cc1csc2nc(-c3ccc(F)cc3)cn12)Nc1ccc(F)c(F)c1`, the host macrophage viability is 114%.

Turning to `Cc1cc(NCc2ccccc2Cl)n2nc(Cc3cccc(F)c3)nc2n1`, the host macrophage viability came to 131%.

Take `CCOC(=O)c1ccc(NC(=O)CSc2nncn2-n2cccc2)cc1`: the host macrophage viability was determined as 114%.

For `Cc1nnsc1C(=O)Nc1ccccc1C(F)(F)F`, the host macrophage viability stood at 117%.

As for `CCN1CCN(CC(=O)Nc2ccc(C)cc2C)C(=O)C1=O`, the host macrophage viability was determined as 100%.

With `Cc1ccc2nc(SC(C)c3ccccc3)nc(=O)n2c1` (configuration not stated), the host macrophage viability was 126%.

As to `Cc1cc(NC(=O)CSc2nc3sc4c(c3c(=O)[nH]2)CCC(C(C)(C)C)C4)no1` (configuration not stated), the host macrophage viability amounted to 87.7%.

As for `Cc1nc2c(cc1NC(=O)Nc1ccccc1Cl)nc(C)n2Cc1ccccc1`, the host macrophage viability amounted to 122%.

Take `CCC(C)NC(=O)C(C)C1CCN(C(=O)c2cc3ccccc3[nH]2)CC1` (configuration not stated): the host macrophage viability worked out at 104%.

Regarding `Cn1c(=O)[nH]c(=O)c2c1nc(CN1CCN(c3cccc(Cl)c3)CC1)n2Cc1cccc(Cl)c1`, the host macrophage viability was 118%.

On to `CCc1cccc(NC(=O)Cn2cnc3sc(-c4nc(-c5ccncc5)no4)c(C)c3c2=O)c1`, for which the host macrophage viability worked out at 91.6%.

For `O=C(NC1CCCCC1)N1CCC(n2cnc3cccnc32)CC1`, the host macrophage viability was determined as 101%.

In the case of `COc1cc(Nc2c(C)c(C)nc3nc(Cc4cccc(F)c4)nn23)cc(OC)c1`, the host macrophage viability is 127%.

In the case of `Cc1ccc(CNc2ncccc2-c2nc(-c3ccccc3C)no2)cc1`, the host macrophage viability amounted to 103%.

`COc1cc(Cl)ccc1Oc1ncnc2oc(C)c(C)c12`: the host macrophage viability came to 121%.

As for `COc1cc(CNC(=O)CCn2c(-c3ccccn3)cc3cccnc32)cc(OC)c1`, the host macrophage viability worked out at 108%.

Turning to `CN(C)C(CNS(=O)(=O)c1ccc2c(c1)NC(=O)CO2)c1ccc2c(c1)OCO2` (configuration not stated), the host macrophage viability was 102%.

On to `COC(=O)c1ccc(CSc2nc3sc(C(=O)O)c(C)c3c(=O)[nH]2)cc1`, for which the host macrophage viability was found to be 114%.

For `Fc1cccc2sc(Nc3nc(-c4nc5ccccc5s4)cs3)nc12`, the host macrophage viability is 113 ± 17%.

Regarding `O=C(Cn1ncn2nc3c(c2c1=O)CCCC3)Nc1ccc2c(c1)OCCO2`, the host macrophage viability came out at 130%.

With `CCc1ccc2c(c1)C(O)(c1c(C)[nH]c3ccccc13)C(=O)N2` (configuration not stated), the host macrophage viability turned out to be 92.2%.

Regarding `COc1ccc2c(C)cc(SCC(=O)Nc3ccc4c(c3)OCO4)nc2c1`, the host macrophage viability is 130%.

For `Cc1ccc(CN(CC(=O)N2CCNCC2)C(=O)c2cccnc2)cc1C`, the host macrophage viability was found to be 114%.

Consider `Cc1cc2oc(C(=O)N(C)Cc3nc4cc(Cl)ccc4[nH]3)cc(=O)c2cc1C`, for which the host macrophage viability is 108%.

In the case of `COc1ccc(NC(=O)c2cc(-c3ccc4c(c3)OCCO4)on2)c(OC)c1`, the host macrophage viability stood at 121%.

Consider `COC(=O)c1sccc1S(=O)(=O)Nc1ccc(F)cc1Cl`, for which the host macrophage viability worked out at 116%.

In the case of `CCc1nc2onc(C)c2c(=O)n1CC(=O)OC`, the host macrophage viability turned out to be 111%.

Consider `COc1ccc(S(=O)(=O)NC(=N)NCCc2c(C)[nH]c3ccc(F)cc23)cc1C`, for which the host macrophage viability came to 132%.

With `COc1ccc(CCNc2nc(C)nc3sc4c(c23)CCCC4)cc1OC`, the host macrophage viability turned out to be 117%.

Turning to `Cc1sc(NC(=O)c2cccnc2)nc1-c1ccc2c(c1)CCN2C(=O)C(C)C`, the host macrophage viability is 106%.

On to `O=C(Nc1ccc2c(c1)CCC2)C1CCCN(C(=O)Nc2ccc(F)cc2)C1` (configuration not stated), for which the host macrophage viability was 115%.

Take `Cc1cccc(-n2ccnc2SCC(=O)Nc2ccc3c(c2)OCCO3)c1C`: the host macrophage viability is 122%.

Take `O=C(CN1C(=O)CSC1=O)c1ccc(NC(=O)c2ccccc2)cc1`: the host macrophage viability worked out at 132%.

For `CCSc1nsc(NC(=O)Nc2cccc(C(C)=O)c2)n1`, the host macrophage viability was found to be 116%.

Take `O=C(CC1Sc2ccc(C(F)(F)F)cc2NC1=O)NC1CCCCC1` (configuration not stated): the host macrophage viability was determined as 115%.

As for `O=C(CSc1nc2ccccc2c(=O)[nH]1)Nc1ccc2c(c1)OCCO2`, the host macrophage viability worked out at 92.2%.

With `CC(C)c1ccc2nc3sc(C(=O)N4CCOCC4)c(N)c3cc2c1`, the host macrophage viability amounted to 138%.
